PMC2670831
These are yes or no findings as the source states them, for the method shown. Binding seen in cells or lysates may run through a third protein. Some entries that bind do so weakly or less than the wild type. Sequences can lack the tags named with a protein.

Key:
[1] = molecular target: T1, GFP-tagged DNAJB13 (mouse) (UniProt Q80Y75); assay: co-IP; U2OS and CHO cell lines; data not shown
T1 sequence: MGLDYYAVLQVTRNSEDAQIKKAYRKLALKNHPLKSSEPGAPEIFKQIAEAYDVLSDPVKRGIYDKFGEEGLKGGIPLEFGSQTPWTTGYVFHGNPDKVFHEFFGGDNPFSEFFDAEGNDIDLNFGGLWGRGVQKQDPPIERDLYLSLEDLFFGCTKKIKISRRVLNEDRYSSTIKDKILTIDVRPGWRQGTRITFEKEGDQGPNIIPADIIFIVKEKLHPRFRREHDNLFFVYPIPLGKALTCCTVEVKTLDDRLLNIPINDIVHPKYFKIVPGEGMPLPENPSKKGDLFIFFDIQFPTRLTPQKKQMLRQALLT

[2] = molecular target: T1, GFP-tagged DNAJB13 (mouse); assay: co-IP; HeLa S3 cells co-transfected with pEGFP-Dnajb13 and p3xFLAG-Sept4; lysed after 24 h in ELB buffer (50 mM Hepes pH 7.4, 0.25 M NaCl, 0.5 mM EDTA, 0.1% NP-40); IP with rabbit anti-GFP antibody or normal rabbit IgG and protein G beads at 4°C; immunoblotting with anti-FLAG and anti-GFP

B1: FLAG-tagged SEPT4 (protein, UniProt P28661-1 1-478)
chain: MDHSLGWQGNSVPEDGTEAGIKHFLEDSSDDAELSKFVKDFPGSEPYHSAESKTRVARPQILEPRPQSPDLCDDDVEFRGSLWPQPSDSQQYFSAPAPLSPSSRPRSPWGKLDPYDSSEDDKEYVGFATLPNQVHRKSVKKGFDFTLMVAGESGLGKSTLVNSLFLTDLYRDRKLLGAEERIMQTVEITKHAVDIEEKGVRLRLTIVDTPGFGDAVNNTECWKPVAEYIDQQFEQYFRDESGLNRKNIQDNRVHCCLYFISPFGHGLRPLDVEFMKALHQRVNIVPILAKADTLTPPEVDRKKCKIREEIEHFGIKIYQFPDCDSDEDEDFKLQDQALKESIPFAVIGSNTVVEARGRRVRGRLYPWGIVEVENPGHCDFVKLRTMLVRTHMQDLKDVTRETHYENYRAQCIQSMTRLVVKERNRNKLTRESGTDFPIPAVPPGTDPETEKLIREKDEELRRMQEMLHKIQRQMKETH
binding [1]: binds | binding [2]: binds
